The source of these data is patent publication US20230235074A1 (University of Texas, published 2023).

No constants are given. Whether binding was seen depends on the method and setting.

The target in the assay is BST2 medium isoform (BST2-H, 158 amino acids) expressed on HEK293 transfectants. The assay can be described thus: cell-based ELISA on dried cells, hybridoma supernatant, OD 450 nm. A general note: An ELISA detects its analyte on a solid surface through an enzyme-linked reagent.

B1: BM7 antibody (antibody, IgG1, V domains shown)
VH: QVTLKESGPGILKPSQTLSLTCSFSGFSLSTSGVGVGWIRQPSGKGLEWLAHIWWDDDEYYNPSLKSQLTISKDTSRNQVFLKITSVDTSDTATYYCARRYYGDAMDYWGQGTAVTVSS
VL: DVVMTQTPVSLPVSLGDQASISCRSTQSLVHSNGHTYLHWYLQKPGQSPKLLIYKVSNRFSGVPDRFSGTGSGTDFTLKISRVEAEDLGVYFCSQSTHVPYTFGGGTKLEIK
notes: Tested as hybridoma supernatant
Take B1: the binding result is recorded as “no binding (tested: undiluted supernatant)”.

B2: LA1 antibody (antibody, IgG1, V domains shown)
VH: EVQLQQSGPELVKPGASVKISCKTSGYTFTEDTMHWVKQSHGKSLEWIGGINPNKGGTSYNQKFKDKATLTVDKSSSTAYMELRSLTSEDSAVYYCATLVDYWGQGTTLTVSS
VL: DIVMTQSQKFMSTSVGDRVSVTCKASQNVGTNVAWYQQKPGQSPKALIHSASYRYSGVPDRFTGSGSGTDFTLTISNVQSEDLAEYFCQQYNSYPLTFGAGTKLELK
notes: Mouse hybridoma antibody, isotype IgG1, kappa; Tested as hybridoma supernatant
With B2, the binding entry is “no binding (tested: undiluted supernatant)”.
